Measurements reported in PubChem BioAssay AID1259405 (NCATS, 2018).
Aim: 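Knock-downs that lift recombinant protein yield in hamster ovary cells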 (primary screen). Cells: Chinese hamster CHO-K1 ovary cells with stable secreted eGFP expression. Reagents: single siRNA against mouse genes, 0.8 pmol siRNA per well (2 µl of 400 nM stock). Time to read-out: 3 days. Measurement: 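Percent of the per-plate non-targeting control median for intracellular GFP per well by laser scanning cytometry and for cell viability by ATP luminescence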. Direction: GFP, % of control: higher = more GFP per well, higher productivity. Active means: 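a knock-down is called active if GFP reaches 120% or more of non-targeting control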.
The deposit covers about 50,000 reagents; shown is a random part of them. About 4,000 of them (8%) count as active. 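Mouse siRNA library applied to hamster cells; one well for each siRNA.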 Further read-outs or replicates are left out here.

GFP, % of control, by gene and reagent
Ppp2r3d (GeneID 19054): SID363547764 81.7 inactive; SID363558533 90.1 inactive; SID363560291 79.6 inactive
4632404H12Rik (GeneID 74034): SID363542586 79.5 inactive; SID363552077 69.3 inactive; SID363559682 62.7 inactive
Or8k41 (GeneID 258400): SID363554406 49.6 inactive; SID363567853 47.8 inactive; SID363585210 53 inactive
Dlx4 (GeneID 13394): SID363545888 118 inactive; SID363549401 69.7 inactive; SID363563207 44.8 inactive
D630044L22Rik (GeneID 240054): SID363542628 103 inactive; SID363546145 114 inactive; SID363547901 65.1 inactive
Slc38a3 (GeneID 76257): SID363581748 106 inactive; SID363589242 27.3 inactive
C730034F03Rik (GeneID 105246016): SID363550037 70.9 inactive; SID363564546 50.1 inactive; SID363588091 114 inactive
Scd3 (GeneID 30049): SID363556852 45.7 inactive; SID363563756 64 inactive; SID363587302 85.6 inactive
Fam117a (GeneID 215512): SID363552269 68.8 inactive; SID363585405 92.5 inactive; SID363585756 132 active
Nlgn2 (GeneID 216856): SID363572762 89 inactive; SID363578042 91.6 inactive; SID363582266 100 inactive
Scgb1a1 (GeneID 22287): SID363541753 45.3 inactive; SID363553345 63.9 inactive; SID363566669 39.2 inactive
H1f7 (GeneID 70069): SID363543555 98.2 inactive; SID363553048 81.8 inactive; SID363558896 85.2 inactive
Dkk2 (GeneID 56811): SID363539515 82 inactive; SID363560816 113 inactive; SID363564906 79.3 inactive
Dmac1 (GeneID 66928): SID363543782 76.6 inactive; SID363551518 47.8 inactive; SID363559123 87.4 inactive
Ddx3y (GeneID 26900): SID363545460 87.2 inactive; SID363548973 57.7 inactive; SID363562779 66.8 inactive
Pdgfrb (GeneID 18596): SID363570807 75.5 inactive
Fbxo45 (GeneID 268882): SID363581817 81.3 inactive; SID363589311 100 inactive
Cd40lg (GeneID 21947): SID363541920 74.6 inactive; SID363553512 63.9 inactive; SID363566836 49.5 inactive
Plxdc1 (GeneID 72324): SID363554781 70.8 inactive; SID363568228 81.7 inactive; SID363586287 77.2 inactive
Spryd7 (GeneID 66674): SID363552140 61.6 inactive; SID363585276 110 inactive; SID363585627 64.3 inactive
Henmt1 (GeneID 66715): SID363542519 52.7 inactive; SID363552010 86.3 inactive; SID363559615 92.4 inactive

A run of entries of the results above, as a working copy:
GFP, % of control, by gene and reagent
Dlx4 (GeneID 13394): SID363563207 44.8 inactive
D630044L22Rik (GeneID 240054): SID363542628 103 inactive; SID363546145 114 inactive; SID363547901 65.1 inactive
Slc38a3 (GeneID 76257): SID363581748 106 inactive; SID363589242 27.3 inactive
C730034F03Rik (GeneID 105246016): SID363550037 70.9 inactive; SID363564546 50.1 inactive; SID363588091 114 inactive
